Results are given in words; binding and its absence hold for the method and conditions named. In cells and extracts the contact can be indirect. Here binding means that the protein was enriched with, or labelled near, the bait; the list need not be complete.
Molecular target: N-terminally FLAG-tagged and C-terminally HA-tagged CAND1 (human) (UniProt Q86VP6)
Experiment: affinity purification with mass spectrometry; anti-FLAG immunoprecipitation of FLAG-CAND1-HA from tetracycline-induced stable HEK293 cells; hypotonic lysis buffer (25 mM Tris, 2 mM EDTA, 2 mM EGTA); washed four times with 1X PBS; SDS-PAGE, Coomassie; bands of about 85 kDa identified by mass spectrometry

Amino acid sequences for entries named in this document (tags omitted).
UniProt Q86VP6: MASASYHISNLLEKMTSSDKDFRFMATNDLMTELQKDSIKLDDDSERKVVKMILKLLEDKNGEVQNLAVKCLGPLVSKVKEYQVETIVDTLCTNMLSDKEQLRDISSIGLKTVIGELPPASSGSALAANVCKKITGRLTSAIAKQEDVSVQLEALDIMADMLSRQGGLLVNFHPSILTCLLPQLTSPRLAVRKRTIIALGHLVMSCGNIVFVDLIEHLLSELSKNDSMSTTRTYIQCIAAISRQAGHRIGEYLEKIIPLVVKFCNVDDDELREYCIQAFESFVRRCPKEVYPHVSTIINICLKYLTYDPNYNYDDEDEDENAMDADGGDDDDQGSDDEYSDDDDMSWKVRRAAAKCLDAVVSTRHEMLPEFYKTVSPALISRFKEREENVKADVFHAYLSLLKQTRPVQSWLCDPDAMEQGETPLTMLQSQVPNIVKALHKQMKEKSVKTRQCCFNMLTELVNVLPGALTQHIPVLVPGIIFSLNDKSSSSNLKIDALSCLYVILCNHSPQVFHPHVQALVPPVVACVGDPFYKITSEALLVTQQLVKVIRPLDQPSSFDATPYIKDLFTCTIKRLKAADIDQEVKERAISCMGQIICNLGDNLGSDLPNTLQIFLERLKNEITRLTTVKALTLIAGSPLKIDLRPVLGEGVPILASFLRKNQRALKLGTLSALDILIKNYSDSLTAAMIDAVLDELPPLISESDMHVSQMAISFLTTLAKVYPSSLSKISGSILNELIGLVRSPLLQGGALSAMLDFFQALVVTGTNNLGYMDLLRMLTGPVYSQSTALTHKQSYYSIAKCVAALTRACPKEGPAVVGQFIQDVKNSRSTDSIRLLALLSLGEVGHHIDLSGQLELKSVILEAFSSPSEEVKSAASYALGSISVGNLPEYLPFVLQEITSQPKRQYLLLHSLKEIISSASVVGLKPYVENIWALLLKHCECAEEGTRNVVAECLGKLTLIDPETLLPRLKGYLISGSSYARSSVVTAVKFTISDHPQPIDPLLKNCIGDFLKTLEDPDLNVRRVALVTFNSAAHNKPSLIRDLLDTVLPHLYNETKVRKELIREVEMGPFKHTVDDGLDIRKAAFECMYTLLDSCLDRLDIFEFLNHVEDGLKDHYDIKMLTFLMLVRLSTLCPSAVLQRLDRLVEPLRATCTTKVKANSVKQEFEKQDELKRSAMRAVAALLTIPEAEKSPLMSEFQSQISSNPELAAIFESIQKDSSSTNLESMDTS
UniProt Q93034: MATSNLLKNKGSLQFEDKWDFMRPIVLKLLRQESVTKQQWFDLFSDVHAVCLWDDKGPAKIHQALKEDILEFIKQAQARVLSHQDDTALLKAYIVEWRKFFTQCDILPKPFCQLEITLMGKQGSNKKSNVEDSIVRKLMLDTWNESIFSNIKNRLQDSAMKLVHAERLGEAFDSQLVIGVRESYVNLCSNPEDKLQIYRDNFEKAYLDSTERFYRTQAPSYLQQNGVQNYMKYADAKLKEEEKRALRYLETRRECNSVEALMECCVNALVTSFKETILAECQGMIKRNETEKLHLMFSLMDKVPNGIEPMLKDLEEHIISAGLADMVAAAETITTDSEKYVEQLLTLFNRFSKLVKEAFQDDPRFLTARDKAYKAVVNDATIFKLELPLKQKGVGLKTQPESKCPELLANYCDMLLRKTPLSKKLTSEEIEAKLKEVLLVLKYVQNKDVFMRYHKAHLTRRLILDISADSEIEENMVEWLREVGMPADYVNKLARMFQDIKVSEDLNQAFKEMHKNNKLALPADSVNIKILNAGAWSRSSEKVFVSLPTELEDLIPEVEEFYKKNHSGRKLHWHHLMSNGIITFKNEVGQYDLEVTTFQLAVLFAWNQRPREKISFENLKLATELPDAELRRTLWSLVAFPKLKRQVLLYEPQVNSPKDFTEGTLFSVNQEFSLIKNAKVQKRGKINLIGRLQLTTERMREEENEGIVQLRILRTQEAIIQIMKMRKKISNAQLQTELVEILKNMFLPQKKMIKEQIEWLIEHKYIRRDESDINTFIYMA

binding: binds
Substance: Cul5 (endogenous, HEK293) (from UniProt Q93034 1-780)

Source: PMC3020946
